According to PMC11655529:
No constants are given. Whether binding was seen depends on the method and setting. In cells and extracts the contact can be indirect. Some binding calls cover weakened binding; strength is not graded here.

Sequences of proteins named here, by UniProt entry; tags and fusion partners are left off.
UniProt Q14457: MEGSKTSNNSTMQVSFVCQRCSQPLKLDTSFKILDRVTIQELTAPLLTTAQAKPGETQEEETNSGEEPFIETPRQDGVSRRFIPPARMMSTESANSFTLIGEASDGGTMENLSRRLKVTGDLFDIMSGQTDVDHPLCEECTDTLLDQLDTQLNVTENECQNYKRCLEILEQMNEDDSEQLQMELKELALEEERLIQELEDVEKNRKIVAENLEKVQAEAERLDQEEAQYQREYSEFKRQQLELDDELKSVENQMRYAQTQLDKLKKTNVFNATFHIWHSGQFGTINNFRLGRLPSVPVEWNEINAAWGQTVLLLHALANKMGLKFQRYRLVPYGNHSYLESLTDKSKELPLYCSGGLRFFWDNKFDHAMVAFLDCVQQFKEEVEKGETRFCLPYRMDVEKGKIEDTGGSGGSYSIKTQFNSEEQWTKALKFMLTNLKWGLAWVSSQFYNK
UniProt P10415: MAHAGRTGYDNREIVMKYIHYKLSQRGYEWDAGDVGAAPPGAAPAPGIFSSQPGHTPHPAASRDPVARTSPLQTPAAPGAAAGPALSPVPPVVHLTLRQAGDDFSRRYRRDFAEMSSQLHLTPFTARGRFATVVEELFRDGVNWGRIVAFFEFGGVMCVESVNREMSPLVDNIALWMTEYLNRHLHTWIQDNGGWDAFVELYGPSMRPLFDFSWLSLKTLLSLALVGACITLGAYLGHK

How the values were obtained:
[1] = target: BECN1 (human (endogenous in ovarian cancer cells)) (UniProt Q14457); assay: co-IP; BECN1 antibody (IgG as control) on lysates of control, LOC730101-overexpressing and LOC730101-knockdown ovarian cancer cells treated with 10 µM cisplatin or 10 µM niraparib for 24 h; Western blot for BECN1, VPS34 and Bcl2
[2] = target: p62 (human (endogenous in ovarian cancer cells)) (UniProt Q13501); assay: co-IP; p62 antibody (IgG as control) on lysates of control and LOC730101-knockdown ovarian cancer cells treated with 10 µM cisplatin or 10 µM niraparib for 24 h; Western blot for p62 and RNF168

| binding [1] | binding [2] | Substance |
| --- | --- | --- |
| binds |  | Bcl2 (from UniProt P10415 1-239) |
|  | binds | RNF168 (from UniProt Q8IYW5 1-571) |
